Experimental data as given in patent publication US9828389B2, “Tetrazolinone compounds and their use as pesticides” (SUMITOMO CHEMICAL COMPANY, LIMITED, priority 2012, dated 2017).
Like-named read-outs stand apart in the source and are kept apart here. Some entries share one result that the patent states for a list of compounds.

Assays:
[1] = system: rice blast fungi (Magnaporthe grisea); format: in vivo; conditions: rice (cv; Nipponbare), 6 days in contact with infected seedlings
[2] = system: wheat rust fungi (Puccinia recondita); test: Wheat rust control test, foliar spray on wheat; format: in vivo; conditions: wheat (cv; Shirogane), inoculated after 5 days, observed after 1+8 days
Procedure: The spores of wheat rust fungi (Puccinia recondita) were sprinkling-inoculated. After inoculation, the plants were placed under a dark and humid condition at 23° C. for 1 day and were then cultivated at 20° C. under lighting for 8 days and a lesion area was observed.

Row | SMILES | lesion area compared to the lesion area in untreated plants ([1]; foliar spray 500 ppm) [%] | lesion area compared to the lesion area in untreated plants ([2]; foliar spray 200 ppm) [%] | lesion area compared to the lesion area in untreated plants ([2]; foliar spray 500 ppm) [%] | lesion area compared to the lesion area in untreated plants ([1]; foliar spray 200 ppm) [%]
1 | COc1cccc(-n2nnn(C)c2=O)c1COc1cc(C)c(-n2ccc(C)n2)cc1C [Present compound 75, 1-{3-methoxy-2-[2,5-dimethyl-4-(3-methyl-pyrazol-1-yl)-phenoxymethyl]-phenyl}-4-methyl-1,4-dihydrotetrazole-5-one] | ≤ 30 | ≤ 30 |  | 
2 | COc1cccc(-n2nnn(C)c2=O)c1COc1ccc(-n2cc(C)cn2)cc1Cl [Present compound 76, 1-{3-methoxy-2-[2-chloro-4-(4-methyl-pyrazol-1-yl)-phenoxymethyl]-phenyl}-4-methyl-1,4-dihydrotetrazole-5-one] | ≤ 30 | ≤ 30 |  | 
3 | COc1cccc(-n2nnn(C)c2=O)c1COc1ccc(-n2ncc(C)c2C)cc1C [Present compound 86, 1-{3-methoxy-2-[2-methyl-4-(4,5-dimethyl-pyrazol-1-yl)-phenoxymethyl]-phenyl}-4-methyl-1,4-dihydrotetrazole-5-one] | ≤ 30 |  | ≤ 30 | 
4 | COc1cccc(-n2nnn(C)c2=O)c1COc1ccc(-n2nc(C(C)C)cc2C(C)C)cc1Cl [Present compound 88, 1-{3-methoxy-2-[2-chloro-4-(3,5-diisopropyl-pyrazol-1-yl)-phenoxymethyl]-phenyl}-4-methyl-1,4-dihydrotetrazole-5-one] |  |  | ≤ 30 | ≤ 30
5 | CCc1cc(CC)n(-c2ccc(OCc3c(OC)cccc3-n3nnn(C)c3=O)c(Cl)c2)n1 [Present compound 89, 1-{3-methoxy-2-[2-chloro-4-(3,5-diethyl-pyrazol-1-yl)-phenoxymethyl]-phenyl}-4-methyl-1,4-dihydrotetrazole-5-one] | ≤ 30 |  | ≤ 30 | 
6 | COc1cccc(-n2nnn(C)c2=O)c1COc1ccc(-c2ccn(C(C)C)n2)cc1C [Present compound 91, 1-{3-methoxy-2-[2-methyl-4-(1-isopropyl-1H-pyrazol-3-yl)-phenoxymethyl]-phenyl}-4-methyl-1,4-dihydrotetrazole-5-one] | ≤ 30 | ≤ 30 |  | 
7 | COc1cccc(-n2nnn(C)c2=O)c1COc1ccc(-n2ccc(C(C)(C)C)n2)cc1C [Present compound 92, 1-{3-methoxy-2-[2-methyl-4-(3-tert-butyl-pyrazol-1-yl)-phenoxymethyl]-phenyl}-4-methyl-1,4-dihydrotetrazole-5-one] |  | ≤ 30 |  | ≤ 30
8 | COc1cccc(-n2nnn(C)c2=O)c1COc1ccc(-n2nc(C)c(OC)c2C)cc1Cl [Present compound 94, 1-{3-methoxy-2-[2-chloro-4-(3,5-dimethyl-4-methoxy-pyrazol-1-yl)-phenoxymethyl]-phenyl}-4-methyl-1,4-dihydrotetrazole-5-one] |  |  | ≤ 30 | ≤ 30
9 | COc1cccc(-n2nnn(C)c2=O)c1COc1ccc(-n2nc(C)c(C)c2C)cc1C(F)(F)F [Present compound 95, 1-{3-methoxy-2-[2-trifluoromethyl-4-(3,4,5-trimethyl-pyrazol-1-yl)-phenoxymethyl]-phenyl}-4-methyl-, 4-dihydrotetrazole-5-one] |  | ≤ 30 |  | ≤ 30
10 | CCc1c(C)nn(-c2ccc(OCc3c(OC)cccc3-n3nnn(C)c3=O)c(Cl)c2)c1C [Present compound 96, 1-{3-methoxy-2-[2-chloro-4-(3,5-dimethyl-4-ethyl-pyrazol-1-yl)-phenoxymethyl]-phenyl}-4-methyl-1,4-dihydrotetrazole-5-one] |  | ≤ 30 |  | ≤ 30
11 | COc1cccc(-n2nnn(C)c2=O)c1COc1ccc(-c2ccn(CC(C)C)n2)cc1C [Present compound 98, 1-{3-methoxy-2-[2-methyl-4-(1-isobutyl-1H-pyrazol-3-yl)-phenoxymethyl]-phenyl}-4-methyl-1,4-dihydrotetrazole-5-one] |  | ≤ 30 |  | ≤ 30
12 | COc1cccc(-n2nnn(C)c2=O)c1COc1ccc(-c2ccnn2CC(C)C)cc1C [Present compound 99, 1-{3-methoxy-2-[2-methyl-4-(1-isobutyl-1H-pyrazole-5-yl)-phenoxymethyl]-phenyl}-4-methyl-1,4-dihydrotetrazole-5-one] |  | ≤ 30 |  | ≤ 30
13 | COc1cccc(-n2nnn(C)c2=O)c1COc1ccc(-c2ccnn2CCC(C)C)cc1C [Present compound 101, 1-{3-methoxy-2-{2-methyl-4-[1-(3-methyl-butyl)-1H-pyrazole-5-yl)-phenoxymethyl]-phenyl}-4-methyl-1,4-dihydrotetrazole-5-one] |  | ≤ 30 |  | ≤ 30
14 | CCCCCn1ccc(-c2ccc(OCc3c(OC)cccc3-n3nnn(C)c3=O)c(C)c2)n1 [Present compound 102] |  | ≤ 30 |  | ≤ 30
15 | CCCCCn1nccc1-c1ccc(OCc2c(OC)cccc2-n2nnn(C)c2=O)c(C)c1 [Present compound 103] |  | ≤ 30 |  | ≤ 30
16 | COc1cccc(-n2nnn(C)c2=O)c1COc1ccc(-c2ccn(CC(F)F)n2)cc1C [Present compound 105] | ≤ 30 | ≤ 30 |  | 
17 | C#CCn1ccc(-c2ccc(OCc3c(OC)cccc3-n3nnn(C)c3=O)c(C)c2)n1 [Present compound 106, 1-(3-methoxy-2-{2-methyl-4-{1-(2-propynyl)-1H-pyrazol-3-yl)-phenoxymethyl}-phenyl)-4-methyl-1,4-dihydrotetrazole-5-one] | ≤ 30 | ≤ 30 |  | 
18 | CC#CCn1ccc(-c2ccc(OCc3c(OC)cccc3-n3nnn(C)c3=O)c(C)c2)n1 [Present compound 107, 1-(3-methoxy-2-{2-methyl-4-[1-(2-butynyl)-1H-pyrazol-3-yl)-phenoxymethyl}-phenyl)-4-methyl-1,4-dihydrotetrazole-5-one] | ≤ 30 | ≤ 30 |  | 
19 | CCCn1ccc(-c2ccc(OCc3c(OC)cccc3-n3nnn(C)c3=O)c(C)c2)n1 [Present compound 108, 1-(3-methoxy-2-[2-methyl-4-(1-propyl-1H-pyrazol-3-yl)-phenoxymethyl}-phenyl)-4-methyl-1,4-dihydrotetrazole-5-one] | ≤ 30 | ≤ 30 |  | 
20 | COc1cccc(-n2nnn(C)c2=O)c1COc1ccc(-c2ccn(CCCC(C)C)n2)cc1C [Present compound 109] |  | ≤ 30 |  | ≤ 30
21 | CCCCn1ccc(-c2ccc(OCc3c(OC)cccc3-n3nnn(C)c3=O)c(C)c2)n1 [Present compound 110, 1-{3-methoxy-2-[2-methyl-4-(1-butyl-1H-pyrazol-3-yl)-phenoxymethyl}-phenyl)-4-methyl-1,4-dihydrotetrazole-5-one] |  | ≤ 30 |  | ≤ 30
22 | COc1cccc(-n2nnn(C)c2=O)c1COc1ccc(-n2nc(C)c(Br)c2C)cc1C [Present compound 115, 1-{3-methoxy-2-[2-methyl-4-(4-bromo-3,5-dimethyl-pyrazol-1-yl)-phenoxymethyl]-phenyl}-4-methyl-1,4-dihydrotetrazole-5-one] |  | ≤ 30 |  | ≤ 30
23 | CCc1cc(-c2ccn(C)n2)ccc1OCc1c(OC)cccc1-n1nnn(C)c1=O [Present compound 118, 1-{3-methoxy-2-[2-ethyl-4-(1-methyl-1H-pyrazol-3-yl)-phenoxymethyl]-phenyl}-4-methyl-1,4-dihydrotetrazole-5-one] | ≤ 30 | ≤ 30 |  | ≤ 30
24 | CCCc1cc(-c2ccn(C)n2)ccc1OCc1c(OC)cccc1-n1nnn(C)c1=O [Present compound 119, 1-{3-methoxy-2-[2-propyl-4-(1-methyl-1H-pyrazol-3-yl)-phenoxymethyl]-phenyl}-4-methyl-1,4-dihydrotetrazole-5-one] | ≤ 30 | ≤ 30 |  | ≤ 30
25 | CCCCc1cc(-c2ccn(C)n2)ccc1OCc1c(OC)cccc1-n1nnn(C)c1=O [Present compound 120, 1-{3-methoxy-2-[2-butyl-4-(1-methyl-1H-pyrazol-3-yl)-phenoxymethyl]-phenyl}-4-methyl-1,4-dihydrotetrazole-5-one] |  | ≤ 30 |  | ≤ 30
26 | COc1cccc(-n2nnn(C)c2=O)c1COc1ccc(-c2ccn(C)n2)cc1C1CC1 [Present compound 121, 1-{3-methoxy-2-[2-cyclopropyl-4-(1-methyl-1H-pyrazol-3-yl)-phenoxymethyl]-phenyl}-4-methyl-1,4-dihydrotetrazole-5-one] | ≤ 30 | ≤ 30 |  | ≤ 30
